The source of these data is publication PMC7523692.

For this assay, the target named is T1, Epitope-tagged SPATA22 (mouse) (UniProt Q5SV06).
T1 sequence: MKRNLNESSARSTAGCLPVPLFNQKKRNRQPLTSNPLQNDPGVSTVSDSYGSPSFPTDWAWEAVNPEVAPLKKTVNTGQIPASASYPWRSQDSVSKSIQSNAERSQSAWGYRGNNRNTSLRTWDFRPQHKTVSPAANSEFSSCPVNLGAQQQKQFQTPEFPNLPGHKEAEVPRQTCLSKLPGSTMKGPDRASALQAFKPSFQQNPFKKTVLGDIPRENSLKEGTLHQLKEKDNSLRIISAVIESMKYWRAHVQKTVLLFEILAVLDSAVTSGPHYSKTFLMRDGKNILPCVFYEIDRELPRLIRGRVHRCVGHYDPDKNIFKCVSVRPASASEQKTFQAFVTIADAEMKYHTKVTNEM
In words: co-IP; HEK293 cells transfected separately with MEIOB and SPATA22; lysates incubated with DMSO, VER-49009 or isocotoin (20 uM in the lysate) before mixing and co-immunoprecipitation.

Results are given in words; binding and its absence hold for the method and conditions named. In cells and extracts the contact can be indirect. Some results given as binding are weak or reduced against the parent protein; the word gives no strength. Where a sequence is shown, tags or fusion partners need not be part of it.

B1: Epitope-tagged MEIOB (protein, UniProt Q9D513 1-470)
chain: MAKFFALKNFTALSDLHPNMANLKIIGIVIGKTDVKGFPDRKNIGSERYTFSFTIRDSPCHFVNVSSWGSEDYIRSLSESFRVAECVIIENPLIQRKDTEREEKFSPATPSNYKLLLSENHSMVKVCSPYEVDTKLLSLIHLPVKESRDYYSLADIVANGHSLDGRIINVLAAVRSVGEPKYFTTSDRRKGQRCEVKLFDETEPSFTMTCWDNESILLAQSWMARETVIFASDVRINFNKFQNCMAATVISKTIITVNPDTPEANILLNYIRENKETNVADEIDSYLKESVNLNTIVDVYTVEQLKVKALKSEGKADPFYGILYAYISTLNIDDETTKVVRNRCSSCGYIVNEASNTCTICNQDSSRLKSFFLSFDVLVDLTDHTGTLHSCSLSGSIAEETLGCTINEFLTMTSEQKTKLKWQLLLERSKIYLKLILSHRARGGLKVTILSCKLADPTEASRNLARQGHT
For the molecule B1, the binding entry is “binds”.
